According to PMC4451422, “Catch me if you can: a biotinylated proteoliposome affinity assay for the investigation of assembly of the MexA-MexB-OprM efflux pump from Pseudomonas aeruginosa” (Frontiers in Microbiology, 2015):
These are yes or no findings as the source states them, for the method shown.

Tests used:
[1] = target: T1, MexAB: MexA (palmitoylated) and MexB reconstituted together in biotinylated proteoliposomes (Pseudomonas aeruginosa) (UniProt P52477); assay: condition: only 5 min after generation of the pH gradient (transport at steady state); pull-down; as a1 but diluted with 20 mM Mes Tris pH6, 100 mM K2SO4, 2 mM MgSO4 to generate a pH gradient; beads added after a 5-min incubation (t = 5 min, transport at steady state); both purified
T1 sequence (chain, palmitoylated (lipid anchor); residue not stated) 1: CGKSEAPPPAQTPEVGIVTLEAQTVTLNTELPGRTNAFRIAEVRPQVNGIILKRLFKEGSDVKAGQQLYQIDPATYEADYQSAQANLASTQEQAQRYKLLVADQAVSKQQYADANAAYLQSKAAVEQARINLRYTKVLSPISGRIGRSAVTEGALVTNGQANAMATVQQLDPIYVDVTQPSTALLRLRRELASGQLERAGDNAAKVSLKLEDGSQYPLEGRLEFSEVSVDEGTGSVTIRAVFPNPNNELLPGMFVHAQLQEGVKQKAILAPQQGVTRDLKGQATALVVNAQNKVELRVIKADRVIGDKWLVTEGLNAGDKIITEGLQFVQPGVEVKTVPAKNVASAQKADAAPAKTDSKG
T1 sequence (chain, palmitoylated (lipid anchor); residue not stated) 2: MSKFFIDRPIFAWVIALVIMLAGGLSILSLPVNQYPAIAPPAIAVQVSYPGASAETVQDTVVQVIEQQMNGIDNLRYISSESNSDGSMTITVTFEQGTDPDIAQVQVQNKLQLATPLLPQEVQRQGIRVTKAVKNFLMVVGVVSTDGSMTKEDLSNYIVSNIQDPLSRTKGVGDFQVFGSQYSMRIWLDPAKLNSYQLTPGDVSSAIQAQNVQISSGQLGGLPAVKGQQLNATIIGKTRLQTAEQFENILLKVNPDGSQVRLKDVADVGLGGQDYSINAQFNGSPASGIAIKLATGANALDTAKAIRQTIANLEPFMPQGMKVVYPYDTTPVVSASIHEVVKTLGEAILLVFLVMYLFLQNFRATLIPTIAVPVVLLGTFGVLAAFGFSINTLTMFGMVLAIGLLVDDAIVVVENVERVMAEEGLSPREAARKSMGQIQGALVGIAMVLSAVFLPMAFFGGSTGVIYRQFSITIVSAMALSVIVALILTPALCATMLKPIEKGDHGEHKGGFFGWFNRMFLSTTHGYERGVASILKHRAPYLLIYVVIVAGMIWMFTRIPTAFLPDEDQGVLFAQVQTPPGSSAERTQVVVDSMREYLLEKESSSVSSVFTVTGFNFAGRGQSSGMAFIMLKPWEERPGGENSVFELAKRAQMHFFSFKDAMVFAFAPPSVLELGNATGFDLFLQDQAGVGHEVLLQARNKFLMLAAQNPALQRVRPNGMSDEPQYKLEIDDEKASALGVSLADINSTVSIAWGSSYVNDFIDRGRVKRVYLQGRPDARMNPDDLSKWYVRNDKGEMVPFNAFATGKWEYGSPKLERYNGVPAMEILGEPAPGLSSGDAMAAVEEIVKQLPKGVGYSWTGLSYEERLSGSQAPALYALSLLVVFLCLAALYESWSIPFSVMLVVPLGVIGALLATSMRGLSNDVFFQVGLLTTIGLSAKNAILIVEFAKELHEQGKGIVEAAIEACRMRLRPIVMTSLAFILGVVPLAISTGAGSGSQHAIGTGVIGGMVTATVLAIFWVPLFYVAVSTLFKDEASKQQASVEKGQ

[2] = target: T2, MexB (Pseudomonas aeruginosa) (UniProt P52002); assay: pull-down; MagStrep (streptavidin) magnetic beads sediment biotin-lipid proteoliposomes with MexB or MexAB; OprM in separate proteoliposomes; non-energized: 25 mM Hepes pH7, 100 mM K2SO4, 2 mM MgSO4; 20 min at room temperature; pellets on SDS-PAGE, Coomassie; both purified
T2 sequence: T1 sequence (chain, palmitoylated (lipid anchor); residue not stated) 2

[3] = target: T3, MexB proteoliposomes in the presence of a soluble version of MexA (MexAnp) (Pseudomonas aeruginosa) (UniProt P52477); assay: as above
T3 sequence 1: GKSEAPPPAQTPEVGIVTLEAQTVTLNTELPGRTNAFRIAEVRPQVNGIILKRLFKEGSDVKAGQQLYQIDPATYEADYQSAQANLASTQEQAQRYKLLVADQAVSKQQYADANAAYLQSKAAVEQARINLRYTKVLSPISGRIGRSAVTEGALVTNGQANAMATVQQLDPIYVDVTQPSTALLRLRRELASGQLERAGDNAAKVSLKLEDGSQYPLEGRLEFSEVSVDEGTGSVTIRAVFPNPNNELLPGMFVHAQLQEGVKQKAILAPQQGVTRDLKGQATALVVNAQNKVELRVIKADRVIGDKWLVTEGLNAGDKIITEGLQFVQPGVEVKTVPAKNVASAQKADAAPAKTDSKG
T3 sequence 2: T1 sequence (chain, palmitoylated (lipid anchor); residue not stated) 2

Measured: binding

B1: OprM (natural protein)
chain: CSLIPDYQRPEAPVAAAYPQGQAYGQNTGAAAVPAADIGWREFFRDPQLQQLIGVALENNRDLRVAALNVEAFRAQYRIQRADLFPRIGVDGSGTRQRLPGDLSTTGSPAISSQYGVTLGTTAWELDLFGRLRSLRDQALEQYLATEQAQRSAQTTLVASVATAYLTLKADQAQLQLTKDTLGTYQKSFDLTQRSYDVGVASALDLRQAQTAVEGARATLAQYTRLVAQDQNALVLLLGSGIPANLPQGLGLDQTLLTEVPAGLPSDLLQRRPDILEAEHQLMAANASIGAARAAFFPSISLTANAGTMSRQLSGLFDAGSGSWLFQPSINLPIFTAGSLRASLDYAKIQKDINVAQYEKAIQTAFQEVADGLAARGTFTEQLQAQRDLVKASDEYYQLADKRYRTGVDNYLTLLDAQRSLFTAQQQLITDRLNQLTSEVNLYKALGGGWNQQTVTQQQTAKKEDPQA
notes: OprM, outer membrane channel of the MexA-MexB-OprM efflux pump, Pseudomonas aeruginosa; Purified by the protocol of Phan et al., 2010 with minor modifications; also called OMF; OprM proteoliposomes
no binding: all assays above
